Our source for the step yield, cyclisation yield and oxidative folding yield values is patent US7488712B2 (Kyushu Institute of Technology, priority 2002, dated 2009).

A short description of the first series: general procedure: solution-phase peptide synthesis; HBTU/HOBt.H2O/triethylamine; HATU/DIEA for cyclization. Particulars: coupling step.
Boc-D-Tyr(Me)-L-Ile-D-Pro-L-Ab6-OTmse showed a step yield of 64% yield.
Substance Boc-D-Tyr(Me)-L-Ile-L-Pro-L-Ab7-OBzl had a step yield of 61% yield.
Boc-L-Ab7-D-Tyr(Me)-L-Ile-D-Pro-OBzl returned a step yield of 94% yield.
Still for that read-out and setting: the value for Boc-L-Ab8-D-Tyr(Me)-L-Ile-D-Pro-OBzl was 88% yield.
The same measure, in the same setting: the value for Boc-L-Ab9-D-Tyr(Me)-L-Ile-D-Pro-OBzl was 79% yield.

The same series, now with this note: cyclisation step.
As for “cyclo(-L-A(OAt)6-D-Tyr(Me)-L-Ile-D-Pro-)”, the cyclisation yield entry is listed as “(27%)”.
Consider cyclo(-L-Ab6-D-Tyr(Me)-L-Ile-D-Pro-), for which the cyclisation yield entry was “(23%)”.
With cyclo(-L-Ab7-D-Tyr(Me)-L-Ile-D-Pip-), the cyclisation yield was determined as 39%.
For the substance cyclo(-L-Ab7-D-Tyr(Me)-L-Ile-D-Pro-), the cyclisation yield entry is “(64%)”.
The substance cyclo(-L-Ab7-D-Tyr(Me)-L-Ile-L-Pip-) came in with a cyclisation yield of 61%.
As for cyclo(-L-Ab7-D-Tyr(Me)-L-Ile-L-Pro-), the cyclisation yield result was “(21%)”.
For cyclo(-L-Ab8-D-Tyr(Me)-L-Ile-D-Pro-), the cyclisation yield result is given as “(55%)”.
Regarding cyclo(-L-Ab9-D-Tyr(Me)-L-Ile-D-Pro-), the cyclisation yield entry is on record as “(61%)”.

The series is the same for the next values; noted with them: late stage modification step.
For H-D-Tyr(Me)-L-Ile-D-Pro-L-Ab6-OH.TFA, the step yield is on record as 96% yield.
Still for that read-out and setting: the value for H-D-Tyr(Me)-L-Ile-L-Pro-L-Ab7-OH.TFA was 69% yield; that for H-L-Ab7-D-Tyr(Me)-L-Ile-D-Pro-OH.TFA was 97% yield.
In turn, H-L-Ab8-D-Tyr(Me)-L-Ile-D-Pro-OH.TFA gave a step yield of 97% yield.
On to H-L-Ab9-D-Tyr(Me)-L-Ile-D-Pro-OH.TFA, for which the step yield is reported as 90% yield.
On the same count and under the same terms, the value for “cyclo(-L-Am6(Ac)-D-Tyr(Me)-L-Ile-D-Pro-)” was “(79%)”; that for “cyclo(-L-Am7(Ac)-D-Tyr(Me)-L-Ile-D-Pip-)” was “(66%)”; that for “cyclo(-L-Am7(Ac)-D-Tyr(Me)-L-Ile-D-Pro-)” was “(89%)”.
Same read-out and setting: the value for “cyclo(-L-Am7(Ac)-D-Tyr(Me)-L-Ile-L-Pip-)” was “(86%)”; that for “cyclo(-L-Am7(Ac)-D-Tyr(Me)-L-Ile-L-Pro-)” was “(76%)”; that for “cyclo(-L-Am7(S2Py)-D-Tyr(Me)-L-Ile-D-Pro-)” was 38%.
The same measure, in the same setting: the value for “cyclo(-L-Am7(S4Py)-D-Tyr(Me)-L-Ile-D-Pro-)” was 13%; that for “cyclo(-L-Am7(SEll)-D-Tyr(Me)-L-Ile-D-Pro-)” was 9.3%; that for “cyclo(-L-Am7(SMEt)-D-Tyr(Me)-L-Ile-D-Pro-)” was 11%.
In the case of “cyclo(-L-Am7(SMe)-D-Tyr(Me)-L-Ile-D-Pro-)”, the step yield is 65%.
Same read-out and setting: under “cyclo(-L-Am8(Ac)-D-Tyr(Me)-L-Ile-D-Pro-)” stands “(84%)”; under “cyclo(-L-Am9(Ac)-D-Tyr(Me)-L-Ile-D-Pro-)”, “(77%)”.

The same series, now with this note: oxidative folding step.
On to “cyclo(-L-Am6(-)-D-Tyr(Me)-L-Ile-D-Pro-SS-dimer (SCOP 302)”, for which the oxidative folding yield entry is “(78%)”.
For “cyclo(-L-Am7(-)-D-Tyr(Me)-L-Ile-D-Pip-(SS-dimer: SCOP 300)”, the oxidative folding yield result was “(36%)”.
Still for that read-out and setting: under “cyclo(-L-Am7(-)-D-Tyr(Me)-L-Ile-D-Pro-) SS-dimer (SCOP 304)” stands “(89%)”; under “cyclo(-L-Am7(-)-D-Tyr(Me)-L-Ile-L-Pip-(SS-dimer: SCOP 298)”, “(78%)”.
On the same count and under the same terms, under “cyclo(-L-Am7(-)-D-Tyr(Me)-L-Ile-L-Pro-) (SS-dimer: SCOP 296)” stands “(42%)”; under “cyclo(-L-Am8(-)-D-Tyr(Me)-L-Ile-D-Pro-SS-dimer (SCOP 306)”, “(81%)”; under “cyclo(-L-Am9(-)-D-Tyr(Me)-L-Ile-D-Pro-SS-dimer (SCOP 308)”, “(98%)”.
